Results published in PMC10520887.
Results are given in words; binding and its absence hold for the method and conditions named. In cells and extracts the contact can be indirect. For part of these data: Binding calls can cover weak binding; strength is not graded here.

Protein sequences, listed by entry. Tags and fused reporters are not part of them. Lines headed by an entry give the natural chain unless they say otherwise; changes in a name come on top.
UniProt B8XX90: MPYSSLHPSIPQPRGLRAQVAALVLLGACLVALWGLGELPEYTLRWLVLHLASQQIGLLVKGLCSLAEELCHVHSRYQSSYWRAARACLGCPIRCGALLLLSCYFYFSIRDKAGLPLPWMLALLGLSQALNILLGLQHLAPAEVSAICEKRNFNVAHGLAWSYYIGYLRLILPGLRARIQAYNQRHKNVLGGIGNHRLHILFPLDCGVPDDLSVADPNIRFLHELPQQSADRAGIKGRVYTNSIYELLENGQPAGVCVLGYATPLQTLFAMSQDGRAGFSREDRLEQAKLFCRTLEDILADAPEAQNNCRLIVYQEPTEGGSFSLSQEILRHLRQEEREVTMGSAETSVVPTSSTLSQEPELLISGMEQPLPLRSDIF

Tests used:
[1] = target: GFP-pSTING ΔTBM (porcine) (UniProt B8XX90); test: co-IP; HEK293T cotransfected with the two tagged proteins for 48 h (legends; the methods say 24 h); lysis buffer 50 mM Tris pH 7.2, 150 mM NaCl, 1% sodium deoxycholate, 1% Triton X-100; antibody overnight at 4 °C, protein A/G beads 2 h; co-IP and reverse co-IP; Western blot
[2] = target: GFP-pSTING CTT ΔTBM (porcine) (UniProt B8XX90); test: as above
[3] = target: pTBK1-HA (porcine TBK1) (porcine); test: co-IP; 293T cotransfected with 0.5 μg GFP-STING, 0.5 μg TBK1-HA and increasing pIKKε (0.5, 1, 1.5 μg), IP with anti-HA; or 0.5 μg GFP-STING, 0.5 μg mCherry-IKKε and increasing pTBK1 (0.5, 1, 1.5 μg), IP with anti-mCherry; 48 h; Western blot

- binding [1]: no binding
- binding [2]: no binding
- binding [3]: binds
B1: mCherry-pIKKε (porcine IKKε) (protein, UniProt M9MMN5 1-718)
chain: MQSTVNYLWHTDDLLGQGATASVYKARNKKSGELVAVKVFNTASYLRPREVQVREFEVLRKLNHQNIIKLFAVEETGGSRQKVLVMEYCSSGSLLSVLESPENAFGLPENEFLVVLRCVVAGMNHLRENGIVHRDIKPGNIMRLVGEEGQSIYKLTDFGAARELDDDEKFVSVYGTEEYLHPDMYEQAVLRKPQQKAFGVTVDLWSIGVTLYHAATGSLPFIPYGGPRRNKEIMYRITSEKPAGAIAGIQKRENGPLEWSYTLPVTCQLSTGLQSQLVPILANILEVEQAKCWGFDQFFAETSDILQRVIVHVFSLPQAVLHHVYVHTHNTIAIFLEAVYEQTNVAPQHQEYLFEGHLCVLEPSLSAQHIAHTTASSPLTLFSVASEIPKGLAFRDPALDIPKFVPKVDLQADYNTAKGVLGAGYQALRLARALLAGQELMLRGLHWFVEILQATCKRTLEVTRMALLFLSSSLGNERSSSVAGVQEIQELKRVAEMRSQLRTLAEVLSRCSHNITETQMTLSNLSSELMKNRDQVHEDRSIQQIQCSLDKMCLIYKQFKKSRMRPGLGYNEEQIHKLDKMNFSHLAKRLLQVFQEERVQKYQASLVTHGKRMRLVHETRNHLRLVGCSVAACNTQAQGAQESLSQILDQLAHQLLQDRTRGAQASPPLMATYPNPGLKDLVLHMQELCEEMKLLACDLQDNNRIIEGLNRVPAAPDI
